Measurements: patent US20080009038A1 (Chugai, published 2008)
These are yes or no findings as the source states them, for the method shown. Some binding calls cover weakened binding; strength is not graded here.

T1: human Mp1 (human, UniProt P40238 26-491, limits assumed)
T1 construct: The analyses of section 1.6 used shMp1-FLAG and hMp1-Fc in ELISA, and CHO-human Mp1 and BaF3-human Mp1 cells; also called human Mpl; TPO receptor
T1 sequence (looked up): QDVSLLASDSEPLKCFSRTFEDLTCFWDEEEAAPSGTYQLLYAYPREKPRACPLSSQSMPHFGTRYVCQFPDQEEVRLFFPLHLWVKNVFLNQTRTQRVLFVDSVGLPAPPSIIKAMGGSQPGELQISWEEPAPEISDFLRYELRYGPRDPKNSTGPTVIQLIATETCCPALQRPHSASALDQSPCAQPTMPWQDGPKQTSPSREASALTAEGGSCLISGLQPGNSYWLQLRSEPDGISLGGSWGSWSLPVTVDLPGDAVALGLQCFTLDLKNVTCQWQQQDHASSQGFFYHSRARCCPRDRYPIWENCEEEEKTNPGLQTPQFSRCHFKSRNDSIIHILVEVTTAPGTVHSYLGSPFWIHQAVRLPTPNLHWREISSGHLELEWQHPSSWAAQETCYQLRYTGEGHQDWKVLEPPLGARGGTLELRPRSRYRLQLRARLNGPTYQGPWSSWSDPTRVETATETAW


Biological target: T1, human Mp1
Assay: hybridoma supernatants; ELISA on shMp1-FLAG and hMp1-Fc, flow cytometry on CHO-human Mp1 cells, BaF3-human Mp1 proliferation
Protocol: MRL/MpJUmmCrj-lpr/lpr mice (hereinafter abbreviated as “MRL/lpr mice”; purchased from Charles River, Japan) were immunized; the primary immunization was carried out at eight weeks of age. For every single mouse, an emulsion containing 100 μg of shMPL-FLAG combined with Freud's complete adjuvant (H37 Ra; Beckton Dickinson), was administered subcutaneously as the primary injection. As a booster injection, an emulsion containing shMPL-FLAG (50 μg per mouse) combined with Freud's incomplete adjuvant (Beckton Dickinson) was administered subcutaneously. Three mice which have been immunized six times in total were subjected to a final injection of shMPL-FLAG (50 μg per mouse) through the caudal vein. Cell fusion was achieved by mixing the mouse myeloma P3-X63Ag8U1 cells (P3U1; purchased from ATCC) and mouse splenocytes using polyethylene glycol 1500 (Roche Diagnostics). Hybridoma selection in HAT medium began the following day and culture supernatants were obtained. Screening was carried out by ELISA using immunoplates with immobilized shMp1-FLAG or hMp1-Fc, and by a cell proliferation assay of BaF3-hMp1. Positive clones were isolated as single clones by limiting dilution and then cultured on a large scale. The culture supernatants were collected. Anti-human Mp1 antibody-producing hybridomas, VB22B, VB16, VB140, and VB45B, were obtained by this method.

Row | Binder | binding
1 | anti-human Mp1 antibody VB16 (antibody, V domains shown) VH: QVQLQQPGTELVRPGASVKLSCKASGYTFTDYWVNWVKQRPGRGLEWIGRIHPYDSETHYNQKFKNKATLTVDKSSSTAYIQLSSLTSEDSAVYYCASGGWFASWGQGTLVTVSA VL: DIVMTQAAPSVPVTPGESVSISCRSSKSLLYSNGNTYLYWFLQRPGQSPQLLIYRMSNLASGVPDRFSGSGSGTAFTLTISSVEAEDVGVYYCMQHLEYPYTFGSGTKLEIK | binds
2 | anti-human Mp1 antibody VB140 (antibody, V domains shown) VH: QVQLQQSGPELVKPGASVKISCRAFGYAFSNSWMNWVKQRPGKGLEWIGRIYPGDGETNNNGKFKGKATLTADKSSSTAYMQLSSLTSEDSAVYFCARGYGDYSFAYWGQGTLVTVSA VL: DIVMTQAAPSVPVTPGESVSISCRSSKSLLHSNGNTYLYWFLQRPGQSPQLLIYRMSNLASGVPDRFSGSGSGAAFTLRISRVEAEDVGVYYCMQHLEYPYTFGSGTKLEIK | binds
3 | anti-human Mp1 antibody VB45B (antibody, V domains shown) VH: QVQLQQSGPELVKPGASVKISCKASGYAFSSSWMNWVKQRPGKGLEWIGRIYPGDGETNNNGKFKGKATLTADKSSTTAYMQLSSLTSEDSAVYFCARGYGDYSFAYWGQGTLVTVSA VL: DIVMTQAAPSVPVTPGESVSISCRSSKSLLHSNGNTYLYWFLQRPGQSPQLLIYRMSNLASGVPDRFSGSGSGAAFTLRISRVEAEDVGVYYCMQHLEYPYTFGSGTKLEIK | binds
4 | anti-human Mp1 antibody TA136 (antibody, V domains shown) VH: DVQLQESGPGLVKPSQSLSLTCTVTGYSITSDYAWSWIRQLPGNKLEWMGYITYSGYSIYNPSLKSRISISRDTSKNQLFLQLNSVTTEDTATYYCVGGYDNMDYWGQGTSVTVSS VL: QIVLTQSPAIMSASPGEKVTLTCSASSSVSSSHLYWYQQKPGSSPKLWIYSTSNLASGVPARFSGSGSGTSYSLTISNMETEDAASYFCHQWSSYPWTFGGGTKLEIK | binds
